Results from cells or extracts need not show a direct contact. Negatives hold for the conditions tested. At least one verdict was read from the data and is not stated in words by the source. For some assays here: Where a protein sequence is shown, tags need not be part of it. For some assays here: Construct, isoform or probe ends are uncertain for at least one entry.

Protein sequences, listed by entry. Tags and fused reporters are not part of them.
UniProt Q04207, whole entry: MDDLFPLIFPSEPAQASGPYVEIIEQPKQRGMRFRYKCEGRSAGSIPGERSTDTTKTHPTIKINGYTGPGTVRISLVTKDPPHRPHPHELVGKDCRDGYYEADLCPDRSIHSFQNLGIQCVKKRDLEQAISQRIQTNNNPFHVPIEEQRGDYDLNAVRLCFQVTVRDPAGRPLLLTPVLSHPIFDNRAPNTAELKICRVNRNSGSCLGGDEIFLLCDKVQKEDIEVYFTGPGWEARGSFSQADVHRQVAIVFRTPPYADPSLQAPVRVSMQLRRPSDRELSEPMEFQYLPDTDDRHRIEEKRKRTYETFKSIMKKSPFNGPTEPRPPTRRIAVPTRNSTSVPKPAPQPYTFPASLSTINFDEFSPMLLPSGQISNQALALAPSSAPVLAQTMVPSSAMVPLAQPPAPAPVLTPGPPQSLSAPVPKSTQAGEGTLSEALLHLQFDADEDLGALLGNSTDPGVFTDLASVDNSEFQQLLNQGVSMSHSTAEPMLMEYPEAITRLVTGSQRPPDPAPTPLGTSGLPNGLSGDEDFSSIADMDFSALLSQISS

Assay in all cases: TransAM ELISA
In data set [1] the target is RelA (p65) (mouse (primary MEFs, wild-type and p100-/-)) (UniProt Q04207). Conditions: close to background, TransAM Flexi NF-kB kit (Active Motif), 5 ug MEF nuclear extract, OD450 minus unrelated oligo, pH and temperature not stated, protein in an extract, label: 5' biotin on upper strand.
Data set [2] deals with T1, RelB (mouse (primary MEFs, wild-type and p100-/-)) (UniProt Q04863).
T1 sequence (looked up, limits assumed): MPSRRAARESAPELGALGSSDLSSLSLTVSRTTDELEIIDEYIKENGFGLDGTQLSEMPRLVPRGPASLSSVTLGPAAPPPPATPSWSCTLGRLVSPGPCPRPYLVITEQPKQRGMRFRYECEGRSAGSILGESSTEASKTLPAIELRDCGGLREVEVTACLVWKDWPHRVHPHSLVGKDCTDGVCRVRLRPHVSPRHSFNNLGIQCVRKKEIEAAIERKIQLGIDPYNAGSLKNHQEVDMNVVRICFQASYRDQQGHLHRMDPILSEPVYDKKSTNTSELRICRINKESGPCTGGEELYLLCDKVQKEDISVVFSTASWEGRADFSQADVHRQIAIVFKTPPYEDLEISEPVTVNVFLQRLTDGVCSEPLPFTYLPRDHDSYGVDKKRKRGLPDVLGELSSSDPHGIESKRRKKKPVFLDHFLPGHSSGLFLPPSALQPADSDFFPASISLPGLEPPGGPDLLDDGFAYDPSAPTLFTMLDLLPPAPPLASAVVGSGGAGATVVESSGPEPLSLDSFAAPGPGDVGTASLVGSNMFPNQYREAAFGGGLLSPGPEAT
Conditions: TransAM Flexi NF-kB kit (Active Motif), 5 ug MEF nuclear extract, OD450 minus unrelated oligo, pH and temperature not stated, protein in an extract, label: 5' biotin on upper strand.

For data set [3], the target named is T2, p50 (NF-kB1) (mouse (primary MEFs, wild-type and p100-/-)) (UniProt P25799).
T2 sequence (looked up, limits assumed): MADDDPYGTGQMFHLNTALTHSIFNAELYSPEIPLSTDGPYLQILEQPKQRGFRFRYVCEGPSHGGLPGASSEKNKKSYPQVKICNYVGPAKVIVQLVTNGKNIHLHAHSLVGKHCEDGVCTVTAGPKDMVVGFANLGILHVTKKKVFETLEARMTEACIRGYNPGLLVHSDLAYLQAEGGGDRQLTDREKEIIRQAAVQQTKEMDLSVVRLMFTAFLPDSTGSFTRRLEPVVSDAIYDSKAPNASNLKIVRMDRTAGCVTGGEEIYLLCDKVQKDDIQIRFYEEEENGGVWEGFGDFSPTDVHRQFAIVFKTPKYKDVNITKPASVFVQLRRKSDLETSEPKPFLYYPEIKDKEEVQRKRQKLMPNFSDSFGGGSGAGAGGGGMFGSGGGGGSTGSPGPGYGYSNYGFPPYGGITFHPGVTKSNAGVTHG
Conditions: close to background, TransAM Flexi NF-kB kit (Active Motif), 5 ug MEF nuclear extract, OD450 minus unrelated oligo, pH and temperature not stated, protein in an extract, label: 5' biotin on upper strand.

The target in data set [4] is T3, p52 (NF-kB2) (mouse (primary MEFs, wild-type and p100-/-)) (UniProt Q9WTK5).
T3 sequence (looked up, limits assumed): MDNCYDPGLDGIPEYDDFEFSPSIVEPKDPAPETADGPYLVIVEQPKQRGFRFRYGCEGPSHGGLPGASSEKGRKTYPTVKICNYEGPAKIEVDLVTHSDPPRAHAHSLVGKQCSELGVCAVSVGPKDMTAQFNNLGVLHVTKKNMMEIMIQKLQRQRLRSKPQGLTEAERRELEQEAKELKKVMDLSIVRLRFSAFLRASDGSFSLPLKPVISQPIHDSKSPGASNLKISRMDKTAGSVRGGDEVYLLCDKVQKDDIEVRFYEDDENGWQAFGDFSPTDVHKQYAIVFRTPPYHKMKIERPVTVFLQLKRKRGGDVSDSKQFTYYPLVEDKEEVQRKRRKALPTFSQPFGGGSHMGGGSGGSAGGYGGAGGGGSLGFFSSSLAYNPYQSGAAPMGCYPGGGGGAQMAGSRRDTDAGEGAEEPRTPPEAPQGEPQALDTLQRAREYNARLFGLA
The following applies: TransAM Flexi NF-kB kit (Active Motif), 5 ug MEF nuclear extract, OD450 minus unrelated oligo, pH and temperature not stated, protein in an extract, label: 5' biotin on upper strand.

The mark [5] stands for this setting: p100-/- extract, increased over wild-type, further with TNF.

With “AATGTTATCTCTCGTGTGAGTTGCAATTTTGGAAGCTCCCATTGTGTGAA (double strand) [ATX3.2]”, the binding result is recorded as “no binding” in data set [1] (wild-type and p100-/- extract); “binds” in data set [2] (setting [5]); “no binding” in data set [3] (wild-type and p100-/- extract); “binds” in data set [4] (setting [5]).
As for “AGTAGCTGACAATGTATTTATATAGATACAGGGTCATTCCAACTGCCAGA (double strand) [ATX3.1]”, the binding result is on record as “no binding” in data set [1] (wild-type and p100-/- extract); “binds” in data set [2] (setting [5]); “no binding” in data set [3] (wild-type and p100-/- extract); “binds” in data set [4] (setting [5]).
Regarding “CTTCCAAGGAGAGCCTAGGTTTTCTTAGAGATGGGTTTCTATGTCAGAGA (double strand) [ATXunr1]”, the binding result in data set [1], in data set [2] (close to background), in data set [3] and in data set [4] (close to background) was “no binding” each time.
For “GTGCTATCGGGTTTTATGCGAGCAGAGCCACGGGGGCTTCCTTTAAGCAG (double strand) [ATX4]”, the binding result in data set [1] (wild-type and p100-/- extract) is on record as “no binding”; in data set [2] (setting [5]), “binds”; in data set [3] (wild-type and p100-/- extract), “no binding”; in data set [4] (setting [5]) it was “binds”.
With “TGTTTTACAGTTGATTCGATGCCAAGATAAGGCTATCCTCCTGACTGCCT (double strand) [ATXunr2]”, the binding result in data set [1], in data set [2] (close to background), in data set [3] and in data set [4] (close to background) was “no binding” in each case.
